In publication PMC4650837 one finds binding data, which are given here for two molecules.

By UniProt entry, the sequences of proteins in these tests, tags left out. Where a name states a change or a piece, a line headed by the entry shows the natural chain unless it says otherwise.
UniProt P42858: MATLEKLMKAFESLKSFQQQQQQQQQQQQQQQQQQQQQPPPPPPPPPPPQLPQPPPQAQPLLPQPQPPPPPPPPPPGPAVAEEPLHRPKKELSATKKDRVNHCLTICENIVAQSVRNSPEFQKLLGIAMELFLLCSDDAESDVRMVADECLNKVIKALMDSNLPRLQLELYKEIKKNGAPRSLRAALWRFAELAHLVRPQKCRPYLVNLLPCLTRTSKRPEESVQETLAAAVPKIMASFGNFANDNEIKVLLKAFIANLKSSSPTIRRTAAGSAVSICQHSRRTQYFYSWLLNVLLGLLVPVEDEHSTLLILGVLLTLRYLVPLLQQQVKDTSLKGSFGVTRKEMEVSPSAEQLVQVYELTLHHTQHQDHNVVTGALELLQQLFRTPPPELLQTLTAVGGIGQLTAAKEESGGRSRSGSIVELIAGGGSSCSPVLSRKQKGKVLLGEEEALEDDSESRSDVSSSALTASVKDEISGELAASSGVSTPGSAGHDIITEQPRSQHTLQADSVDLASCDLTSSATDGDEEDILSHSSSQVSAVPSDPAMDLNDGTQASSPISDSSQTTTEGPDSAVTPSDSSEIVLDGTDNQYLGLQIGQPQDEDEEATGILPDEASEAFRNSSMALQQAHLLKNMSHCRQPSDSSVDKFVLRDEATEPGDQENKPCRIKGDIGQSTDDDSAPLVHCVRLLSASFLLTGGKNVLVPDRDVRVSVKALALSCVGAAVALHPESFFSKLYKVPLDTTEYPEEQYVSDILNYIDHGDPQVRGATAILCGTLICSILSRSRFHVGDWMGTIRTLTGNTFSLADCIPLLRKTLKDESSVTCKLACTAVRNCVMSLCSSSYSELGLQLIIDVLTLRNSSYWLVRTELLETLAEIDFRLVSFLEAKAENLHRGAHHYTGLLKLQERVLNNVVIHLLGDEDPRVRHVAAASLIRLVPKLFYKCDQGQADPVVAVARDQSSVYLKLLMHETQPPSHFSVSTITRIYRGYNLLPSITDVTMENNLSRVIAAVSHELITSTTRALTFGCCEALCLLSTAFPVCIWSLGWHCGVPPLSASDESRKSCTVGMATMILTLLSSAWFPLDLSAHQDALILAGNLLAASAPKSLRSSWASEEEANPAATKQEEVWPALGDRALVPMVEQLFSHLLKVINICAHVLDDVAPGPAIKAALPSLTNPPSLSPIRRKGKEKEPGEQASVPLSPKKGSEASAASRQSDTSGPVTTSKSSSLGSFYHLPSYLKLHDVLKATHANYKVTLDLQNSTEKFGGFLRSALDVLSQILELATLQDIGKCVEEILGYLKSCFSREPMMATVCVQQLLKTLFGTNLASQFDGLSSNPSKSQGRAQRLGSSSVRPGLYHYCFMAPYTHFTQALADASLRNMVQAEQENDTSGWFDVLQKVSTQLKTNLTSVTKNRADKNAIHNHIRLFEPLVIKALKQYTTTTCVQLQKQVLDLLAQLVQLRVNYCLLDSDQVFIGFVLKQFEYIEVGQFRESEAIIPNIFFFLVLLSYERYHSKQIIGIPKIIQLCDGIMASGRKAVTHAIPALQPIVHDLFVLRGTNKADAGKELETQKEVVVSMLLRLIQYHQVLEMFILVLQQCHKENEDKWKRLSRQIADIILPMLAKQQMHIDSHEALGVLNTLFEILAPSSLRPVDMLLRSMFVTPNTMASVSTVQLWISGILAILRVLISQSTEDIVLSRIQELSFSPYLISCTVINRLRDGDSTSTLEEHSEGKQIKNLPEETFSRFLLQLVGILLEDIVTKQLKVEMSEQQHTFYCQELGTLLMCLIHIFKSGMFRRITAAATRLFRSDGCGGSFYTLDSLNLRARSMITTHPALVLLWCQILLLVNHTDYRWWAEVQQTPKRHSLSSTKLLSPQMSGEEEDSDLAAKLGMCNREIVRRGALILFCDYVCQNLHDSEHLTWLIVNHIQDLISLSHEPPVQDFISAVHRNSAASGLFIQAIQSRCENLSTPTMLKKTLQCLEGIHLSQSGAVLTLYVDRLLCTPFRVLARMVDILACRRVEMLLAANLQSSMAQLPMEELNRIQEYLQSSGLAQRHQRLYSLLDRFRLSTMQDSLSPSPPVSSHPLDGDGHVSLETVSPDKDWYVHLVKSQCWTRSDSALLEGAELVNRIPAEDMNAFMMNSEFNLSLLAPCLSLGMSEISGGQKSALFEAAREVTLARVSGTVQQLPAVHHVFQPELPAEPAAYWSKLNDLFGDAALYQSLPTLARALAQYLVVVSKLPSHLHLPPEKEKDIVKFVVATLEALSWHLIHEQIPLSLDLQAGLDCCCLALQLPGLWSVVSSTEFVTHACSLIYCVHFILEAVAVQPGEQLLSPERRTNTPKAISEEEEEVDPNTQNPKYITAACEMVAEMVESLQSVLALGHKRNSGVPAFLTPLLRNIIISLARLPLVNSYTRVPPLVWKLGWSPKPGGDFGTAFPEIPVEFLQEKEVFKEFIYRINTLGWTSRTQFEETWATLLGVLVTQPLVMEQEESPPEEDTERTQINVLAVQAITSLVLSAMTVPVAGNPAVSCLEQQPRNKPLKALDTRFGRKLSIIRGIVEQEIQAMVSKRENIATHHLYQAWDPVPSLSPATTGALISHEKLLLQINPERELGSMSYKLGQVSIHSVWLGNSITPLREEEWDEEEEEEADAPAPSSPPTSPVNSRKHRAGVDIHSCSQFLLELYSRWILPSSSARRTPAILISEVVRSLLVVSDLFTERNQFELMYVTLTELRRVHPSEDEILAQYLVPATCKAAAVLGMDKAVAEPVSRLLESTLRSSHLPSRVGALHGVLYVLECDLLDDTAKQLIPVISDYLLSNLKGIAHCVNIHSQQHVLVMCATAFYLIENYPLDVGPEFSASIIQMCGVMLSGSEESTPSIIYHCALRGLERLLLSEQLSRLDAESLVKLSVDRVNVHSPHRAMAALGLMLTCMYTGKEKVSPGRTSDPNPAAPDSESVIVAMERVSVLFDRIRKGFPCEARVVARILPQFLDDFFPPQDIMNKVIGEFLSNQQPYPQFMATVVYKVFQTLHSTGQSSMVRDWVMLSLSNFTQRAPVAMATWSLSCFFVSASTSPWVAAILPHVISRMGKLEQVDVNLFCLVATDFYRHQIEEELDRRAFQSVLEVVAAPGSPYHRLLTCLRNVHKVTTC

These are yes or no findings as the source states them, for the method shown.

The experiment deals with N171-40Q mutant huntingtin protein (UniProt P42858). In words: trapping of a disulfide-linked heterodimer, non-reducing SDS-PAGE and Western blot; cell-free; purified proteins in 50 mM Tris (pH 7.0), 150 mM NaCl incubated at room temperature for one hour, then 50 mM N-ethylmaleimide to block free thiols; reducing or non-reducing SDS-PAGE; both purified.

B1: thioredoxin 1 (enzyme, UniProt P10599 1-105)
chain: MVKQIESKTAFQEALDAAGDKLVVVDFSATWCGPCKMIKPFFHSLSEKYSNVIFLEVDVDDCQDVASECEVKCMPTFQFFKKGQKVGEFSGANKEKLEATINELV
Take B1: the binding result is on record as “no binding”.

B2: mutant TRX1 (C35S) (enzyme, UniProt P10599 1-105)
chain: MVKQIESKTAFQEALDAAGDKLVVVDFSATWCGPSKMIKPFFHSLSEKYSNVIFLEVDVDDCQDVASECEVKCMPTFQFFKKGQKVGEFSGANKEKLEATINELV
As to B2, the binding entry is recorded as “no binding”.
